Laboratory results published in US20200123547.
Results from cells or extracts need not show a direct contact. A negative result means that nothing was seen under these conditions.

Target: cMet (HGFR) on NCI-H1838 cells (human) (UniProt P08581)
Assay: flow cytometry
Conditions: four 5-(1-dodecynyl)-2'-deoxyuridine residues at 5' end, protein on the cell surface, label: 5'-Atto647N

Sequence | binding result (marginal staining, minimal shift, 37 C, single-stranded DNA, variant of Atto647N-trCLN3-L4 (Atto647N-3)) | binding result (strong uptake at 37 C (1 and 10 uM), weak membrane-localized signal at 4 C, confocal and flow, folded or branched DNA, variant of trCLN3-L4)
TGGATGATAGCTCGGTCGGGGTGGATGGGTTGGCAAGTCT [Atto647N-trCLN3.mut-L4 (Atto647N.mut-3)] | no binding | 
TGGATGGTAGCTCGGTCGGGGTGGGTGGGTTGGCAAGTCT [Atto647N-trCLN3-L4 (Atto647N-3)] |  | binds
